At least one compound was matched to its structure with a doubt left.
Test: Drug release profile in phosphate buffer (pH=7.4) in vitro simulated blood environment
Assay type: physicochemical
Details: when the release experiment is started, dialysis bag

With `C#C[C@]1(O)CC[C@H]2[C@@H]3CCc4cc(O)ccc4[C@H]3CC[C@@]21C` [ethinylestradiol, 3-hydroxy-19-nor-17α-pregna-1,3,5(10)-trien-20-yn-17-ol] the release behaviour was “almost not released”.

— US20240189323A1, “PREPARATION FOR ETHINYLESTRADIOL-CYCLODEXTRIN COMPLEX AND USE THEREOF” (NATIONAL RESEARCH INSTITUTE FOR FAMILY PLANNING, priority 2022, published 2024)
